Source: publication PMC7865074
Results are given in words; binding and its absence hold for the method and conditions named.

Sequences of proteins named here, by UniProt entry; tags and fusion partners are left off. Residues count along the entry.
UniProt Q6P9H4, residues 211-293: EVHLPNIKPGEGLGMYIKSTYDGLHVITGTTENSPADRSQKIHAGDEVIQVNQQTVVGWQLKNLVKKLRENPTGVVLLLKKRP

Biological target: biotinylated WNV NS5 PBM peptide (West Nile virus)
Assay: condition: BI < 0.15 (threshold for a significant interaction 0.2); holdup assay (automated high-throughput chromatography); biotinylated NS5 PBM peptide as bait against 259 human PDZ domains expressed in E. coli; read-out binding intensity (BI), mean of replicates; BI threshold 0.2 for a significant interaction

“Connector enhancer of kinase suppressor of ras 3, PDZ domain (holdup construct) (from UniProt Q6P9H4 211-293) (domain or fragment)” was tested, and the binding was “no binding”.
